According to patent US7906486B2, “Method of treating or preventing tissue deterioration, injury or damage due to disease of mucosa” (SciClone Pharmaceuticals, Inc., priority 2007, dated 2011):
Several values for one entry are separate records, joined by “and”; a condition that tells them apart may be missing. Equal entries are not always repeated. Further values from the same series stand in other lists.

Test: Weights and survival (Example 2, SCI-02)
Type: in vivo, Syrian Golden Hamsters
Experimental: All animals were weighed daily and their survival recorded, in order to assess possible differences in animal weight among treatment groups as an indication for mucositis severity and/or possible toxicity resulting from the treatments.
The mean daily percent weight change data was evaluated. The saline treated control hamsters gained an average of 44.1% of their starting weight during the study. Hamsters in the group receiving SCV-07 100 μg/kg once daily on days −1 to 20 gained an average of 49.9% of their starting weight during the study. Hamsters in the group receiving SCV-07 at 100 μg/kg twice daily on days −1 to 20 gained an average of 61.3% of their starting weight during the study. Hamsters in the group receiving SCV-07 at 1 mg/kg once daily on days −1 to 20 gained an average of 63.4% of their starting weight during the study. Hamsters in the group receiving SCV-07 at 1 mg/kg twice daily on days −1 to 20 gained an average of 69.1% of their starting weight during the study. The significance of these differences was evaluated by calculating the area-under-the-curve (AUC) for the weight gain of each animal, and then comparing the different treatment groups using a One-Way ANOVA test.

N[C@H](CCC(=O)N[C@@H](Cc1c[nH]c2ccccc12)C(=O)O)C(=O)O [SCV-07, γ-D-glutamyl-L-tryptophan]
Animal weight (Group 2, day 0): 87.6 and 87.2 and 81.6 and 71.9 and 86.2 and 81.9 and 82.7 and 80.4
Animal weight (Group 2, day 1): 86.5 and 80.5 and 81.7 and 72.8 and 85.7 and 82.6 and 83.4 and 81.2
Animal weight (Group 2, day 2): 92 and 86 and 75 and 91 and 88 and 90
Animal weight (Group 2, day 3): 96 and 94 and 86 and 77 and 93 and 87 and 91 and 88
Animal weight (Group 2, day 4): 98 and 97 and 87 and 79 and 94 and 90 and 93 and 89
Animal weight (Group 2, day 5): 102 and 99 and 88 and 79 and 95 and 90 and 92
Animal weight (Group 2, day 6): 105 and 101 and 90 and 85 and 98 and 92 and 97 and 93
Animal weight (Group 2, day 7): 107 and 103 and 90 and 84 and 97 and 94 and 99
Animal weight (Group 2, day 8): 108 and 105 and 94 and 85 and 99 and 100 and 98
Animal weight (Group 2, day 9): 114 and 111 and 95 and 88 and 101 and 105 and 98
Animal weight (Group 2, day 10): 117 and 110 and 97 and 91 and 105 and 100 and 106 and 103
Animal weight (Group 2, day 11): 109 and 103 and 90 and 88 and 98 and 95 and 101 and 99
Animal weight (Group 2, day 12): 120 and 114 and 98 and 97 and 109 and 104 and 107
Animal weight (Group 2, day 13): 118 and 110 and 95 and 97 and 104 and 102 and 106
Animal weight (Group 2, day 14): 124 and 116 and 98 and 101 and 110 and 106 and 111
Animal weight (Group 2, day 15): 123 and 116 and 99 and 98 and 110 and 102 and 111 and 113
Animal weight (Group 2, day 16): 130 and 121 and 104 and 108 and 115 and 105 and 118
Animal weight (Group 2, day 17): 122 and 117 and 98 and 101 and 109 and 100 and 111
Animal weight (Group 2, day 18): 123 and 110 and 107 and 100 and 108 and 98 and 95 and 114
Animal weight (Group 2, day 19): 130 and 124 and 105 and 108 and 115 and 109 and 119 and 120
Animal weight (Group 2, day 20): 124 and 117 and 98 and 102 and 108 and 103 and 111 and 114
Animal weight (Group 2, day 21): 124 and 117 and 98 and 102 and 107 and 103 and 110 and 114
Animal weight (Group 2, day 22): 135 and 134 and 100 and 112 and 115 and 110 and 120 and 121
Animal weight (Group 2, day 23): 142 and 130 and 108 and 120 and 122 and 118 and 128
Animal weight (Group 2, day 24): 135 and 124 and 102 and 112 and 116 and 110 and 121 and 126
Animal weight (Group 2, day 25): 142 and 131 and 108 and 120 and 117 and 119 and 128
Animal weight (Group 2, day 26): 137 and 127 and 116 and 104 and 118 and 115 and 129
Animal weight (Group 2, day 27): 136 and 125 and 101 and 114 and 110 and 113 and 124
Animal weight (Group 2, day 28): 142 and 131 and 107 and 120 and 121 and 117 and 118
Animal weight (Group 3, day 0): 77.1 and 75 and 86.6 and 80.2 and 81.7 and 82 and 80.8 and 83
Animal weight (Group 3, day 1): 77.1 and 75.8 and 86.1 and 79.1 and 81 and 80.3 and 80.8 and 80.7
Animal weight (Group 3, day 2): 80 and 82 and 93 and 86 and 87 and 88
Animal weight (Group 3, day 3): 83 and 81 and 94 and 89 and 90
Animal weight (Group 3, day 4): 79 and 81 and 92 and 84 and 85 and 89
Animal weight (Group 3, day 5): 84 and 82 and 98 and 86 and 89 and 93 and 94
Animal weight (Group 3, day 6): 91 and 85 and 102 and 93 and 92 and 101
Animal weight (Group 3, day 7): 91 and 85 and 105 and 95 and 94 and 100 and 102
Animal weight (Group 3, day 8): 85 and 81 and 99 and 89 and 87 and 88 and 93 and 95
Animal weight (Group 3, day 9): 98 and 90 and 113 and 100 and 99 and 107 and 110
Animal weight (Group 3, day 10): 100 and 92 and 115 and 103 and 102 and 107 and 113
Animal weight (Group 3, day 11): 99 and 91 and 117 and 102 and 100 and 108 and 113
Animal weight (Group 3, day 12): 101 and 92 and 120 and 104 and 115 and 118
Animal weight (Group 3, day 13): 97 and 88 and 116 and 101 and 99 and 100 and 108 and 117
Animal weight (Group 3, day 14): 103 and 94 and 121 and 105 and 106 and 113 and 120
Animal weight (Group 3, day 15): 104 and 94 and 127 and 106 and 105 and 114 and 121
Animal weight (Group 3, day 16): 107 and 98 and 134 and 113 and 109 and 110 and 119 and 126
Animal weight (Group 3, day 17): 108 and 100 and 133 and 110 and 106 and 112 and 119 and 128
Animal weight (Group 3, day 18): 111 and 101 and 138 and 115 and 109 and 114 and 123 and 130
Animal weight (Group 3, day 19): 111 and 102 and 136 and 112 and 109 and 114 and 123 and 131
Animal weight (Group 3, day 20): 114 and 105 and 140 and 110 and 118 and 126 and 133
Animal weight (Group 3, day 21): 117 and 108 and 141 and 116 and 112 and 118 and 129 and 137
Animal weight (Group 3, day 22): 110 and 105 and 136 and 112 and 120 and 127
Animal weight (Group 3, day 23): 122 and 110 and 145 and 117 and 114 and 134 and 140
Animal weight (Group 3, day 24): 115 and 112 and 147 and 119 and 120 and 124 and 136 and 142
Animal weight (Group 3, day 25): 126 and 114 and 150 and 121 and 116 and 124 and 137 and 143
Animal weight (Group 3, day 26): 122 and 111 and 145 and 119 and 114 and 135 and 142
Animal weight (Group 3, day 27): 129 and 117 and 153 and 123 and 119 and 141 and 147
Animal weight (Group 3, day 28): 127 and 117 and 151 and 120 and 118 and 126 and 139 and 146
Animal weight (Group 4, day 0): 85.2 and 88.7 and 83.4 and 72.4 and 72.3 and 90.6 and 75.9 and 84.8
Animal weight (Group 4, day 1): 84.3 and 89.4 and 84.9 and 75.7 and 75.8 and 94 and 77.5 and 86.4
Animal weight (Group 4, day 2): 86 and 94 and 77 and 96 and 79 and 91
Animal weight (Group 4, day 3): 89 and 98 and 90 and 79 and 78 and 99 and 82 and 95
Animal weight (Group 4, day 4): 93 and 100 and 92 and 81 and 83 and 101 and 84 and 99
Animal weight (Group 4, day 5): 92 and 101 and 93 and 81 and 82 and 104 and 85 and 98
Animal weight (Group 4, day 6): 98 and 104 and 97 and 85 and 87 and 109 and 89 and 103
Animal weight (Group 4, day 7): 98 and 107 and 97 and 85 and 91 and 111 and 104
Animal weight (Group 4, day 8): 100 and 108 and 98 and 86 and 91 and 109 and 102
Animal weight (Group 4, day 9): 106 and 113 and 102 and 90 and 99 and 115 and 98 and 109
Animal weight (Group 4, day 10): 105 and 114 and 103 and 92 and 99 and 116 and 111
Animal weight (Group 4, day 11): 107 and 116 and 105 and 93 and 102 and 115 and 100 and 111
Animal weight (Group 4, day 12): 109 and 119 and 105 and 94 and 103 and 117 and 116
Animal weight (Group 4, day 13): 108 and 118 and 105 and 94 and 104 and 103 and 116
Animal weight (Group 4, day 14): 110 and 121 and 108 and 93 and 105 and 120 and 118
Animal weight (Group 4, day 15): 107 and 120 and 105 and 91 and 106 and 116
Animal weight (Group 4, day 16): 113 and 126 and 111 and 93 and 110 and 125 and 112 and 122
Animal weight (Group 4, day 17): 114 and 127 and 94 and 126 and 112 and 123
Animal weight (Group 4, day 18): 116 and 125 and 115 and 96 and 111 and 120 and 114 and 124
Animal weight (Group 4, day 19): 116 and 130 and 115 and 95 and 129 and 122
Animal weight (Group 4, day 20): 120 and 133 and 118 and 98 and 119 and 131 and 117 and 124
Animal weight (Group 4, day 21): 119 and 136 and 122 and 99 and 121 and 133 and 118 and 128
Animal weight (Group 4, day 22): 113 and 136 and 114 and 99 and 112 and 124 and 119
Animal weight (Group 4, day 23): 123 and 139 and 126 and 104 and 125 and 134 and 120 and 130
Animal weight (Group 4, day 24): 126 and 142 and 127 and 103 and 135 and 123 and 131
Animal weight (Group 4, day 25): 126 and 142 and 129 and 105 and 138 and 127 and 133
Animal weight (Group 4, day 26): 126 and 144 and 130 and 105 and 138 and 127 and 131
Animal weight (Group 4, day 27): 129 and 145 and 132 and 107 and 130 and 138 and 128
Animal weight (Group 4, day 28): 133 and 147 and 135 and 111 and 134 and 139 and 131
Animal weight (Group 5, day 0): 90.1 and 76.5 and 87.5 and 81 and 74.7 and 79.8 and 77.3 and 80.1
Animal weight (Group 5, day 1): 87.6 and 77.3 and 89.6 and 82.8 and 74.2 and 81.8 and 76.6 and 78.8
Animal weight (Group 5, day 2): 89 and 78 and 91 and 84 and 83 and 81 and 75 and 80
Animal weight (Group 5, day 3): 93 and 79 and 95 and 89 and 87 and 85 and 83
Animal weight (Group 5, day 4): 94 and 81 and 98 and 96 and 90 and 87 and 86
Animal weight (Group 5, day 5): 98 and 81 and 93 and 85 and 90 and 88 and 86
Animal weight (Group 5, day 6): 106 and 83 and 105 and 101 and 87 and 94 and 90 and 95
Animal weight (Group 5, day 7): 106 and 86 and 100 and 88 and 96 and 92
Animal weight (Group 5, day 8): 107 and 87 and 109 and 101 and 91 and 98 and 94 and 97
Animal weight (Group 5, day 9): 112 and 90 and 114 and 106 and 95 and 104 and 97 and 99
Animal weight (Group 5, day 10): 113 and 91 and 116 and 107 and 97 and 104 and 99 and 102
Animal weight (Group 5, day 11): 113 and 90 and 118 and 107 and 98 and 105 and 99 and 100
Animal weight (Group 5, day 12): 117 and 92 and 122 and 110 and 99 and 109 and 102
Animal weight (Group 5, day 13): 118 and 93 and 119 and 113 and 99 and 108 and 103 and 102
Animal weight (Group 5, day 14): 119 and 117 and 95 and 122 and 100 and 112 and 106 and 104
Animal weight (Group 5, day 15): 118 and 99 and 120 and 114 and 112 and 107 and 104
Animal weight (Group 5, day 16): 125 and 103 and 127 and 120 and 105 and 115 and 112 and 108
Animal weight (Group 5, day 17): 125 and 104 and 127 and 122 and 118 and 113 and 107
Animal weight (Group 5, day 18): 128 and 106 and 129 and 125 and 120 and 115 and 109
Animal weight (Group 5, day 19): 131 and 106 and 130 and 124 and 107 and 121 and 115 and 111
Animal weight (Group 5, day 20): 130 and 107 and 127 and 109 and 121 and 117 and 111
Animal weight (Group 5, day 21): 136 and 109 and 133 and 132 and 111 and 124 and 120 and 114
Animal weight (Group 5, day 22): 134 and 113 and 133 and 131 and 110 and 124 and 120
Animal weight (Group 5, day 23): 137 and 115 and 136 and 129 and 125 and 117
Animal weight (Group 5, day 24): 135 and 113 and 112 and 129 and 127 and 116
Animal weight (Group 5, day 25): 142 and 120 and 141 and 140 and 118 and 132 and 131 and 121
Animal weight (Group 5, day 26): 145 and 117 and 141 and 120 and 133 and 132 and 123
Animal weight (Group 5, day 27): 148 and 121 and 144 and 124 and 137 and 133
Animal weight (Group 5, day 28): 150 and 123 and 147 and 126 and 139 and 137 and 125
